# Test results published in PubChem BioAssay AID540303 (National Center for Advancing Translational Sciences (NCATS), 2011).
# The campaign covered roughly 330,000 compounds. About 1,000 (0.3%) were called active. Inconclusive results, whose numbers are uncertain, are shown with a selection of clear calls. The call rests on the fitted dose curve; in most records, active means well fitted inhibition curve with a large enough effect; inconclusive means small, poorly fitted or top-dose-only effect; inactive means no such curve, though single readings can be large or run the other way; tested in mouse RAW 264.7 cells. Potencies of inconclusive entries are doubtful fits and often do not repeat.
# Assay: qHTS for Inhibitors of Cell Surface uPA Generation; further: nearly all actives have a fitted effect of over 55% in size
# Details: cell surface uPA generation assay; series mostly up to 38.3 µM
# Method in brief: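 Using RAW 264.7 macrophages, the screen measures whether compounds keep cellular ATP up by preventing uPA-driven LF translocation. Treatment lasted 24 h at 37 C, with a final top concentration of 38.3 uM, and luminescence was the readout.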
# Potency means the concentration at half of the fitted maximal effect.
row,Compound,Potency
1,CC(C)Cc1nnc(NC(=O)CCC(=O)Nc2ccccc2F)s1,inactive
2,O=C(N/N=C/c1cccs1)/C(=C/c1ccccc1)NC(=O)c1ccccc1,inactive
3,CCCCNC(=O)c1cccc(S(=O)(=O)N2CC3(C)CC2CC(C)(C)C3)c1 (stereo unspecified),active: 2.24 µM
4,CC1CCCN(c2ncnc3c2cnn3-c2ccc(Cl)cc2)C1 (stereo unspecified),active: 2.24 µM
5,CCNc1oc(/C=C/c2ccc(OCC)cc2)nc1C#N,active: 3.16 µM
6,Cn1c(=O)c2c(SCC(=O)N3CCCC3)nc(CC(C)(C)C)nc2n(C)c1=O,inactive
7,Cc1cc2nc(CCN(C(=S)NCC(C)C)C3CCCC3)[nH]c2cc1C,"inconclusive: 12.6 µM [inhibitor, single point]"
8,Nc1nc(Cl)nc2c1ncn2[C@@H]1O[C@H](CO)[C@@H](O)[C@H]1O,"inconclusive: 4.47 µM [inhibitor, partial curve, poor fit]"
9,Cc1ccc(S(=O)(=O)N2CCN(c3nc(CN4CCCC4)nc4sc(C)c(C)c34)CC2)cc1,"inconclusive: 28.2 µM [inhibitor, single point]"
10,CN(C)S(=O)(=O)N1CCc2ccc(NC(=O)c3ccc(C(F)(F)F)cc3)cc2C1,"inconclusive: 14.1 µM [inhibitor, partial curve, poor fit]"
11,CN(C)C(CNC(=S)Nc1ccc(Cl)cc1)c1cccnc1 (stereo unspecified),inactive
12,Cc1cc(-c2ccc(C)c(S(=O)(=O)NCCCN(Cc3ccccc3)C(C)C)c2)on1,"inconclusive: 11.2 µM [inhibitor, single point]"
13,CN(CC(=O)Nc1cccc(S(=O)(=O)N2CCCC2)c1)CC(=O)Nc1ccc(F)c(F)c1F,inactive
14,Cc1cc(NS(=O)(=O)c2ccc(NC(=O)c3ccc([N+](=O)[O-])s3)cc2)nc(C)n1,inactive
15,COc1ccc(C(=O)C[n+]2cc(-c3ccc(OC)cc3)n3c2CCCC3)cc1,"inconclusive: 14.1 µM [inhibitor, partial curve, poor fit]"
16,CCC[C@@H]1C[C@@]1(CCC)[C@@H](NP(=O)(c1ccccc1)c1ccccc1)c1ccc(C(=O)OC)cc1,"inconclusive: 12.6 µM [inhibitor, single point]"
17,COc1ccc(-c2nnc(-c3ccccc3)o2)cc1OC,"inconclusive: 10 µM [inhibitor, partial curve]"
18,CC1Cc2ccccc2N1C(=O)CN1CCc2ccccc2C1 (stereo unspecified),inactive
19,COC(=O)c1sccc1NC(=O)c1ccc(Cl)cc1,"inconclusive: 0.794 µM [inhibitor, partial curve, poor fit]"
20,CCCCCn1c(=O)[nH]c2cc(C(=O)NCCCN(CC)CC)ccc2c1=O,inactive
21,COc1ccc(N(C(=O)/C=C/C(=O)Nc2cc(C)on2)C(C(=O)NC2CCCC2)c2ccccc2C)cc1 (stereo unspecified),"inconclusive: 5.62 µM [inhibitor, partial curve, poor fit]"
22,Cc1c(Cl)cccc1NC(=O)N1CCCN(c2nc(-c3ccccc3)ns2)CC1,inactive

# 3 entries out of the list, arranged by SMILES length, low to high.
row,Compound,Potency
17,COc1ccc(-c2nnc(-c3ccccc3)o2)cc1OC,"inconclusive: 10 µM [inhibitor, partial curve]"
2,O=C(N/N=C/c1cccs1)/C(=C/c1ccccc1)NC(=O)c1ccccc1,inactive
21,COc1ccc(N(C(=O)/C=C/C(=O)Nc2cc(C)on2)C(C(=O)NC2CCCC2)c2ccccc2C)cc1 (stereo unspecified),"inconclusive: 5.62 µM [inhibitor, partial curve, poor fit]"

# The listing continues:

row,Compound,Potency
1,CC(=O)NC12CC3CC(C1)CC(C(=O)OCC(=O)c1cc(C)n(C)c1C)(C3)C2,"inconclusive: 5.62 µM [inhibitor, partial curve, poor fit]"
2,O=C(Nc1ccccc1F)c1ccn[nH]1,inactive
3,CC1=CC(c2ccccc2)=Nc2ccc(C)cc2N1,"inconclusive: 5.01 µM [inhibitor, partial curve, poor fit]"
4,COc1ccc(NC(=O)c2cnc(SC)nc2)cc1,"inconclusive: 6.31 µM [inhibitor, partial curve, poor fit]"
5,N#C/C(=C\c1ccc([N+](=O)[O-])o1)c1nc2ccccc2[nH]1,"inconclusive: 2.24 µM [inhibitor, full curve, poor fit]"
6,Cc1ccccc1-c1nnn(Cc2cccc(S(=O)(=O)N3CCOCC3)c2)n1,"inconclusive: 12.6 µM [inhibitor, single point]"
7,CC(C)(C)C1CCc2c(sc(NC(=O)CSc3nnc(-c4ccccc4)o3)c2C#N)C1 (stereo unspecified),inactive
8,C=CCn1cc(CN2CCC(C(=O)Nc3cccc(-c4cccc(Cl)c4)c3)CC2)c(C)n1,inactive
9,COc1ccc(C2=Nn3c([n+](C)c4ccccc43)SC2)cc1,active: 3.55 µM
10,O=C(N/C(=C/c1cn(-c2ccccc2)nc1-c1ccccc1)C(=O)N1CCOCC1)c1ccc(Cl)cc1Cl,inactive
11,Cc1cc2c(cc1S(=O)(=O)N1CCN(c3ccccc3)CC1)OCCN2C,"inconclusive: 10 µM [inhibitor, single point]"
12,CSCCC(NC(=O)c1ccccc1Cl)C(=O)N1CCCCC1 (stereo unspecified),"inconclusive: 12.6 µM [inhibitor, partial curve, poor fit]"
13,N#Cc1c(NC(=O)c2ccc([N+](=O)[O-])o2)sc2c1CCC2,"inconclusive: 3.16 µM [inhibitor, partial curve]"
14,COc1ccc(NC(=O)CCS(=O)(=O)c2ccccc2Cl)cc1S(=O)(=O)Nc1ccc(Cl)cc1,"inconclusive: 8.91 µM [inhibitor, partial curve, poor fit]"
15,O=C(C[C@H]1C/C=C\C[C@H](NC(=O)OCC2c3ccccc3-c3ccccc32)C(=O)OC[C@H]2CCCN2C1=O)NCCO,inactive
16,COc1ccc(NC(=O)C2CCCN2c2nn3c(=O)cc(C)nc3s2)cc1 (stereo unspecified),inactive
17,CC(=O)N(/N=C/c1ccc([N+](=O)[O-])o1)c1nc2ccccc2c(=O)n1-c1ccccc1,"inconclusive: 12.6 µM [inhibitor, single point]"
18,O=C1CCCN1c1ccc(S(=O)(=O)Nc2ccc3c(c2)OCCO3)cc1,"inconclusive: 3.16 µM [inhibitor, partial curve, poor fit]"
19,CCN(CC)C(=O)Cn1cnc2sc(C(=O)Nc3cc(OC)c(OC)c(OC)c3)c(C)c2c1=O,inactive
20,CN1C(=O)N(CC(=O)Nc2nccs2)C(=O)C12CCCCC2,"inconclusive: 0.316 µM [inhibitor, full curve, poor fit]"
21,CCCCNc1cc(C)nc(NCc2ccccc2)n1,inactive
22,CC(=O)c1ccc(N2Cc3ccccc3C2=NC(=O)c2cccs2)cc1,"inconclusive: 6.31 µM [inhibitor, partial curve, poor fit]"

row,Compound,Potency
1,COc1cc(/C=C/C(=O)OCC(=O)NC2CC2)cc(OC)c1OC,"inconclusive: 12.6 µM [inhibitor, single point]"
2,COc1ccc2nc(SCCN(C)C)[nH]c2c1,"inconclusive: 1.26 µM [inhibitor, single point]"
3,CCOc1ccccc1N(C)S(=O)(=O)c1ccc2[nH]cc(C(=O)N(CCOC)CCOC)c(=O)c2c1,inactive
4,O=C(/C(Cl)=C/Nc1ccc(Br)cn1)C(F)(F)F,"inconclusive: 5.01 µM [inhibitor, partial curve, poor fit]"
5,CCn1c(=N)n(CC(=O)c2cccc([N+](=O)[O-])c2)c2ccccc21,inactive
6,COC(=O)[C@@]1(Cc2ccc(F)cc2)[C@H]2c3cc(C(=O)N4CCCC4)n(CCCNc4ncc(C(F)(F)F)cc4Cl)c3C[C@H]2CN1C(=O)c1ccccc1,"inconclusive: 12.6 µM [inhibitor, single point]"
7,c1ccc(CCSc2ncnc3nc[nH]c23)cc1,"inconclusive: 7.08 µM [inhibitor, partial curve]"
8,CC1CCCC(C)N1CCCNC(=O)c1ccc2nc(N3CCCCC3)sc2c1 (stereo unspecified),"inconclusive: 12.6 µM [inhibitor, single point]"
9,C/C(=N\NC(=O)c1ccccc1F)c1cccc(NC(=O)c2ccc(C)cc2)c1,"inconclusive: 11.2 µM [inhibitor, partial curve, poor fit]"
10,CCOC(=O)Nc1ccc2c(c1)N(C(=O)CCCl)c1ccccc1[S@]2=O,"inconclusive: 7.94 µM [inhibitor, partial curve, poor fit]"
11,COc1cc(NC(=NS(=O)(=O)c2ccccc2)c2ccccc2)ncn1,inactive
12,O=C(CCCN1C(=O)C2CCCCN2C1=O)N1CCN(c2ccc([N+](=O)[O-])cc2)CC1 (stereo unspecified),inactive
13,COc1cc2sc(-c3ccccc3OC)c(-c3ccc(OCCN4CCOCC4)cc3)c2cc1OC,"inconclusive: 12.6 µM [inhibitor, partial curve]"
14,COc1cc2c(cc1OC)CN(C(=O)/C=C/c1cccs1)CC2,active: 3.16 µM
15,COc1cccc(N2CCN(C(=O)c3ccc(CS(=O)c4ccccc4Cl)o3)CC2)c1 (stereo unspecified),"inconclusive: 2.82 µM [inhibitor, full curve, poor fit]"
16,CCOC(=O)c1[nH]c2c(c1-c1ccccc1)C(=O)CC(c1ccccc1)C2 (stereo unspecified),"inconclusive: 10 µM [inhibitor, partial curve]"
17,Cc1cccc(NC(=O)c2nc[nH]c2C(=O)N[C@@H](CC(C)C)C(=O)OCc2ccccc2)c1,inactive
18,COc1cc(OC)c2c(-c3cccc(-c4ccc(NC(C)=O)cc4)c3)cc(=O)oc2c1,"inconclusive: 1 µM [inhibitor, full curve, poor fit]"
19,O=c1oc2ccccc2c(NC2CCCCC2)c1NS(=O)(=O)c1ccc(F)cc1,"inconclusive: 8.91 µM [inhibitor, single point]"
20,COc1ccc(S(=O)(=O)N(C)C)cc1NC(=O)COC(=O)C1CC1,"inconclusive: 0.0126 µM [inhibitor, full curve, poor fit]"
21,COc1ccc(-c2nc(CS(=O)CC(=O)NCC3CCCO3)c(C)o2)cc1 (stereo unspecified),"inconclusive: 2.51 µM [inhibitor, partial curve, poor fit]"
22,CCN(CC)CCCNC(=O)c1cc2c(Cl)nc3ccccc3c2s1,"inconclusive: 10 µM [inhibitor, single point]"
